T1: 1-27 CD3-EpCAM comprising the tamarin 27 mer (Saguinus oedipus; cynomolgus)
T1 sequence: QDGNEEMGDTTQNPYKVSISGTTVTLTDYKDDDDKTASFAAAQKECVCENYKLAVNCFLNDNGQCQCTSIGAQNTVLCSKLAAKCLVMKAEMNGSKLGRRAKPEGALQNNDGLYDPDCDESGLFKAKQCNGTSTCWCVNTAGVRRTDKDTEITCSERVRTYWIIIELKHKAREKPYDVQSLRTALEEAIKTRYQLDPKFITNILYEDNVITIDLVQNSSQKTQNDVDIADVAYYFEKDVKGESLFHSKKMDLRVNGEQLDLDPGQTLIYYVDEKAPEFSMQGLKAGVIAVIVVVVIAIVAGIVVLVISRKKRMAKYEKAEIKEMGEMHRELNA

B1: ME06D1HL (scFv)
scFv: EVQLLEQSGAEVVRPGTSVKMSCKAAGYTFTKYWIGWVKQRPGHGLEWIGDIHPGGGFANYNEKFKGKATLTADTSSSTAYMQLSRLTSDDSAIYYCARSGYDYGSSYDYHGMDYWGQGTTVTVSSGGGGSGGGGSGGGGSELVMTQSPSSLTVTAGEKVTMSCKSSQSLLNSGNQKNYLAWYQQKPGQPPKLLIYGASTRESGVPDRFTGSGSGTDFTLTISSVQAEDLADYFCQQHYSTPYTFGGGTKLEIK
B2: ME05D7HL (scFv)
scFv: EVQLLEQSGAELVRPGTSVKVSCKASGYAFTHYLIEWVKQRPGQGLEWIGMINPENTDTTYNEKFRDKAILTVDKSSNTAYMQLSSLTSDDSAVYFCARQEITSDFDFWGQGTTVTVSSGGGGSGGGGSGGGGSELVLTQSPTTMAASPGEKITITCSASSSISSNYLHWYQQKPGFSPKLLIYRTSNLASGVPARFSGSGSGTSYSLTIGTMEAEDVATYYCQQGSSIPYTFGGGTKLEIK
B3: ME06E10HL (scFv)
scFv: EVQLLEQSGADLVRPGTSVKLSCKAAGYTFSRYWISWIRQRPGHGLEWIGEIYPGGGYGNYNENFKDKVTLTADTSSSTAYMQLSSLTSEDSAIYYCARSGYDYGSKYDYYGLDYWGQGTTVTVSSGGGGSGGGGSGGGGSELVMTQSPSSLSASLGERVSLTCRASQEISGYLSWLQQKPDGTIKRLIYAASTLDSGVPKRFSGSRSGSDYSLTISSLESEDFADYYCLQYASSPYTFGGGTKLEIK
B4: ME06D2HL (scFv)
scFv: EVQLLEQSGADLVRPGTSVKLSCKAAGYTFSRYWISWIRQRPGHGLEWIGEIYPGGGYGNYNENFKDKVTLTADTSSSTAYMQLSSLTSEDSAIYYCARSGYDYGSKYDYYGLDYWGQGTTVTVSSGGGGSGGGGSGGGGSELVMTQSPSSMYASLGERVTITCKASQDINSYLSWFQQKPGKSPKTLIYRANRLVDGVPSRFSGSGSGQDYSLTISSLEYEDMGIYYCLQYDAFPPTFGAGTKLEIK
B5: ME06F2HL (scFv)
scFv: EVQLLEQSGAELMKPGASVKISCKATGYTFSNYWIGWVKQRPGHGLEWIGDIYPGGSYTNYNEKFKGKVTLTADTSSRTAYMQLSSLTFEDSAIYYCARSGYDYASDYDYHGMDYWGQGTTVTVSSGGGGSGGGGSGGGGSELVLTQSPSSMSASLGDRITITCQATQDIVKNLNWYQQKPGKPPSFLIYYATELAEGVPSRFSGSGSGSDYSLTISNLESEDFADYYCLQFYEFPYTFGGGTKLEIK
B6: ME06B7HL (scFv)
scFv: EVQLLEQSGAELVRPGTSVKISCKATGYTFTTYWLGWVKQRPGHGLEWIGEIHPGGGYTNYNEKFKGKATLTADTSSSTAYMQLSRLTSDDSAIYYCARSGYDYGSSYDYYGMDYWGQGTTVTVSSGGGGSGGGGSGGGGSELVMTQSPSSLSASLGERVSLTCRASQDIGSSLNWLQQEPDGTIKRLIYATSSLDSGVPKRFSGSRSGSDYSLTISSLESEDFVDYYCLQYASSPYTFGGGTKLEIK
B7: ME06C6HL (scFv)
scFv: EVQLLEQSGAELVRPGTSVKIPCKATGYTFSYYWIGWVKQRPGHGLEWIGDIYPGGGYSNYNEKFKGKATLTADTSSSTAYMQLSGLTSEDSAIYYCARSGYDYGSDYDYHGLDYWGQGTTVTVSSGGGGSGGGGSGGGGSELVLTQSPASLAVSLGQRATISCRASESVEYYGTSLMQWYQQKPGQPPKLLIYAASNVESGVPARFSGSGSGTDFSLNIHPVEEDDIAMYFCQQSRKVPYTFGGGTKLEIK
B8: ME06C7HL (scFv)
scFv: EVQLLEQSGAEVVRPGTSVKMSCKAAGYTFTKYWIGWVKQRPGHGLEWIGDIHPGGGFANYNEKFKGKATLTADTSSSTAYMQLSRLTSDDSAIYYCARSGYDYGSSYDYHGMDYWGQGTTVTVSSGGGGSGGGGSGGGGSELQMTQSPTSLAVSLGQRATISCRASQTVYYDGNNYMNWYQHKPGQPPKLLIYATSNLESGIPARFSGSGSGTDFTLNIHPVEAEDAATYYCQQSYEDPYTFGGGTKLEIK
B9: ME75H6HL (scFv)
scFv: EVQLLEQSGAELVRPGTSVKMSCKAAGYTFTKYWIGWVKQRPGHGLEWIGDIHPGGGYANYNEKFKGKATLTADTSSSTAYMQLSRLTSDDSAIYYCARSGYDYGSSYDYHGMDFWGQGTTVTVSSGGGGSGGGGSGGGGSELQMTQSPASLSASVGEPVTFTCRASENIYSYLAWYQQKQGKSPQLLIYGATNLADGMSSRFSGSGSGRQYSLKISSLHPDDVATYYCQNVLSTPYTFGGGTKLEIK
B10: ME05F6HL (scFv)
scFv: EVQLLEQSGAEVVRPGTSVKMSCKAAGYTFTKYWIGWVKQRPGHGLEWIGDIHPGGGFANYNEKFKGKATLTADTSSSTAYMQLSRLTSDDSAIYYCARSGYDYGSSYDYHGMDYWGQGTTVTVSSGGGGSGGGGSGGGGSELVMTQSPSSLSASLGERVSLTCRASQEISGYLSWLQQKPDGTIKRLIYAASTLDSGVPKRFSGSRSGSDYSLTISSLESEDFADYYCLQYASYPPTFGGGTKLEIK
B11: ME99B1HL (scFv)
scFv: EVQLLEQSGAELVRPGTSVKISCKATGYTFSNYWISWVKYRPGHGLEWIGDIYPGGSYTNYNEKFKGKVTLTADTSSRTAYMQLSGLTFEDSAIYYCARSGYDYGSDYDYHGMDYWGQGTTVTVSSGGGGSGGGGSGGGGSELQMTQSPASLSASVGETVTITCRASENIYSNLAWYQQKQGKSPQLLVYAATNLADGVPSRFSGSRSGSDYSLTISSLESEDFVDYYCLQYASYPYTFGGGTKLEIK
B12: ME05B7HL (scFv)
scFv: EVQLLEQSGAELVRPGTSVKISCKTTGYTFGYYWISWLKQRPGHGLEWIGDIYPGGGYTNYHEKFKGKVTLTADTSSRTAYMQLSSLTFEDSAIYYCARSGYDYGSDYDYHGMDYWGQGTTVTVSSGGGGSGGGGSGGGGSELVMTQTPSSLSASLGDRVTISCRASQGISNYLNWYQQKPDGSVKLLIYYTSRLHSGVPSRFSGSGSGTDYSLTISNLDQEDIATYFCQQGNTLPWTFGGGTKLEIK
B13: E2M HLP (scFv)
scFv: EVQLLESGGGLVQPGGSLKLSCAASGFTFNGYAMNWVRQAPGKGLEWVARIRSKYNNYATYYADSVKERFTISRDDSKNTAYLQMNNLKTEDTAVYYCVRHRNFGNSYLSWFAYWGQGTLVTVSSGGGGSGGGGSGGGGSELVVTQEPSLTVSPGGTVTLTCRSSTGAVTSGYYPNWVQQKPGQAPRGLIGATDMRPSGTPARFSGSLLGGKAALTLSGVQPEDEAEYYCALWYSNRWVFGGGTKLTVL

Results are given in words; binding and its absence hold for the method and conditions named. Some entries that bind do so weakly or less than the wild type.

The target in the first assay is human cMET extracellular domain fused to truncated human EpCAM (on CHO cells, Example 27.1) (human) (UniProt P08581). Put plainly: FACS on CHO cells.
As for B1, the binding result is recorded as “binds”.

Regarding B2, the binding entry is recorded as “binds”.

Consider B3, for which the binding entry is “binds”.

On to B4, for which the binding result is recorded as “binds”.

For the molecule B5, the binding entry is given as “binds”.

Consider B6, for which the binding result is reported as “binds”.

For the molecule B7, the binding entry is reported as “binds”.

B8: the binding entry is recorded as “binds”.

As for B9, the binding entry is “binds”.

As to B10, the binding result is “binds”.

As for B11, the binding result is “binds”.

Regarding B12, the binding result is “binds”.

A further assay addresses T1, 1-27 CD3-EpCAM comprising the tamarin 27 mer (Saguinus oedipus; cynomolgus). The experiment in a line: FACS on transfected 293-HEK cells.
For B13, the binding entry is given as “binds”.

These data come from US20120034228A1.
